Data reported in PMC6146289, “Combinatorial use of disulfide bridges and native sulfur-SAD phasing for rapid structure determination of coiled-coils” (Bioscience Reports, 2018).
These are yes or no findings as the source states them, for the method shown.

Legend:
[1] = biological target: HsCEP135 82–144 (amino acids 82–144 of human CEP135, centrosomal protein of 135 kDa) (human) (UniProt Q66GS9); assay: condition: only under reducing conditions (2 mM DTT); 20 μl at 23 mg/ml injected; SEC-MALS; reducing conditions: 20 mM Tris-HCl, pH 7.5, 150 mM NaCl, with 2 mM DTT; S-200 10/30 column; 20 μl at 23 mg/ml injected; 10°C; both purified
[2] = biological target: Kif21a_M947C (regulatory coiled-coil domain of human kinesin-4 KIF21A with the mutation M947C) (human) (UniProt Q7Z4S6); assay: SEC-MALS; 20 mM Tris-HCl, pH 7.5, 150 mM NaCl, with or without 2 mM DTT (reducing and oxidizing conditions); S-200 13/10 column; 100 μl at 2 mg/ml injected; 10°C; both purified

Row | binding [1] | Binder | binding [2]
1 | no binding | HsCEP135 82–144 (amino acids 82–144 of human CEP135, centrosomal protein of 135 kDa) (domain or fragment, UniProt Q66GS9 82-144, looked up, coiled-coil fragment with one cysteine (Cys110) and one methionine per monomer; Under oxidizing conditions Cys110 forms a homotypic disulfide bridge between the two chains of the parallel coiled-coil dimer; Calculated molecular weight 7.71 kDa) NNELYLELMKLREHSDQHVKELKTSLKKCARETADLKFLNNQYAHKLKLLEKESKAKNERIQQ | 
2 |  | Kif21a_M947C (regulatory coiled-coil domain of human kinesin-4 KIF21A with the mutation M947C) (domain or fragment, UniProt Q7Z4S6 938-1017) MTISNMEADCNRLLKQREELTKRREKLSKRREKIVKENGEGDKNVANINEEMESLTANIDYINDSISDCQANIMQMEEAK | no binding (tested: 100 μl at 2 mg/ml injected)
